Values from PubChem BioAssay AID686943 (Drosophila RNAi Screening Center, 2013).
Purpose: 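Knockdowns that increase or decrease active ERK after insulin receptor stimulation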 (primary screen). Cell system: Drosophila S2R+ haemocyte-like cells expressing YFP-tagged ERK (Rolled). Knock-down reagent: long dsRNA against Drosophila genes. Treatment: insulin stimulation versus unstimulated cells; dose and duration not given. Detection: 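Antibody staining for doubly phosphorylated ERK divided by ERK-YFP signal, as plate z-scores, in insulin-treated and untreated cells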. Scale: replicate 1, z-score of dpERK with insulin: higher = more active ERK per ERK-YFP after insulin.
The deposit covers about 23,000 reagents; below is a random part of those that have a named target and a result. 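Extra replicates exist only for a retested subset of genes; insulin dose and duration not given; both raised and lowered dpERK matter.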 Not all columns of the deposit are shown. No sequences are given here. The record does not give: the amount of reagent, the time to read-out.

Gene	dsRNA	replicate 1, z-score of dpERK with insulin
Tctp	DRSC15649	-0.16
TER94	DRSC07560	0.14
sphinx1	DRSC10993	0.48
CG14273	DRSC02377	1.98
CG6765	DRSC10706	0.38
knon	DRSC07049	0.19
CG4230	DRSC02740	-0.56
Tom	DRSC11306	0.01
CG11050	DRSC02125	1.33
PpN58A	DRSC04642	0.38
CG14537	DRSC02395	-0.55
thoc6	DRSC10528	-0.16
CecB	DRSC16605	0.62
pasi2	DRSC16380	1.29

2 entries already listed, ordered by “replicate 1, z-score of dpERK with insulin”, low to high:
Gene	dsRNA	replicate 1, z-score of dpERK with insulin
CG4230	DRSC02740	-0.56
knon	DRSC07049	0.19

Additional records follow:
Gene	dsRNA	replicate 1, z-score of dpERK with insulin
CycY	DRSC02420	1.1
TwdlZ	DRSC19154	-0.1
jar	DRSC16974	-0.35
Ir75b	DRSC10189	-0.02
Zmynd8	DRSC15310	0.37
dnt	DRSC03522	0.65
tau	DRSC14569	1.74
gce	DRSC19613	0.26
gce	DRSC19974	0.78
